Among the data in paper PMC3559603 are binding values, retold here.

The chains behind the UniProt entries cited, without tags or fusion partners.
UniProt P35570: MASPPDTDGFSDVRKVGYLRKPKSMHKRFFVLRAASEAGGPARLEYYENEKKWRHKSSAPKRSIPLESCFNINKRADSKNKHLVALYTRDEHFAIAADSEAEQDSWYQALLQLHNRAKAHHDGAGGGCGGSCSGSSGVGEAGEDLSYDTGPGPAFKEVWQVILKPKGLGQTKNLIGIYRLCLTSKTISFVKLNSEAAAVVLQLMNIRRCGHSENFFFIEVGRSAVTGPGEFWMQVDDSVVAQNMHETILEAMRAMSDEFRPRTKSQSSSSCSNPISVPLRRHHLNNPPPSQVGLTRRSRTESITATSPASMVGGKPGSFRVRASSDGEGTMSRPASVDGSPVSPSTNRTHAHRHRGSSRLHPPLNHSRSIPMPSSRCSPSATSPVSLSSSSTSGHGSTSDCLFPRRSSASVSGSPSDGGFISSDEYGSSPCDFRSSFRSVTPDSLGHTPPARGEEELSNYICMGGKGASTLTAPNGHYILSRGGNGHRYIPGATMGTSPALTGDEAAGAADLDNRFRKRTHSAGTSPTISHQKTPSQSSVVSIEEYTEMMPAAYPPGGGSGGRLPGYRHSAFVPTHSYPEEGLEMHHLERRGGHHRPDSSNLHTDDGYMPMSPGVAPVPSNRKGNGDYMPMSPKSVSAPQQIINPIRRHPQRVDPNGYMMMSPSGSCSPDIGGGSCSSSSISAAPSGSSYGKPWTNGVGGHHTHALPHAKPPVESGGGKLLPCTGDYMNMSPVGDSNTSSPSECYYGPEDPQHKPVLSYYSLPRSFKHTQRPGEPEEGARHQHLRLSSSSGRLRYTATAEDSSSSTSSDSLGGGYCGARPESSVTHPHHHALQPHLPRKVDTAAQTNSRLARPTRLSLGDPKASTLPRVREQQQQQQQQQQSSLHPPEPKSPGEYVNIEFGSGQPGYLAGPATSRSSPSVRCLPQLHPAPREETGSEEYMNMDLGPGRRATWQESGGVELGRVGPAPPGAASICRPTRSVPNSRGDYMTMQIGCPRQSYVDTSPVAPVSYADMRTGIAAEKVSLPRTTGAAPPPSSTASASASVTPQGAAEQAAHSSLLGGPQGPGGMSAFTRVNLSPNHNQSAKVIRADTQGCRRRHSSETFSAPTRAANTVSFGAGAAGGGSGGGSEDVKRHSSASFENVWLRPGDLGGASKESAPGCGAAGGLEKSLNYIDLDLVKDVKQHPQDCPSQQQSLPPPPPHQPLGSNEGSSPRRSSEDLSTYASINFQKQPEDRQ

For test [1], the target named is insulin receptor substrate 1 (rat (endogenous in L6)) (UniProt P35570). Put plainly: co-IP; L6 myotubes serum starved, then stimulated with insulin (100 nM for 5, 20 and 60 min; 10 nM in Fig. 4B); lysates immunoprecipitated with IRS1 or IRS2 antibodies, western blot; also cells transfected with scrambled or nexilin siRNA. (In general: Immunoblotting shows a protein as a band on a membrane.)

Test [2] has the same target. The experiment in a line: condition: only cells stimulated with 100 nM insulin; co-IP; L6 myotubes serum starved, then stimulated with insulin (100 nM for 5, 20 and 60 min; 10 nM in Fig. 4B); lysates immunoprecipitated with IRS1 or IRS2 antibodies, western blot; also cells transfected with scrambled or nexilin siRNA.
Test [3] has as its target T1, IRS2 (rat (endogenous in L6)) (UniProt F1MAL5).
T1 sequence: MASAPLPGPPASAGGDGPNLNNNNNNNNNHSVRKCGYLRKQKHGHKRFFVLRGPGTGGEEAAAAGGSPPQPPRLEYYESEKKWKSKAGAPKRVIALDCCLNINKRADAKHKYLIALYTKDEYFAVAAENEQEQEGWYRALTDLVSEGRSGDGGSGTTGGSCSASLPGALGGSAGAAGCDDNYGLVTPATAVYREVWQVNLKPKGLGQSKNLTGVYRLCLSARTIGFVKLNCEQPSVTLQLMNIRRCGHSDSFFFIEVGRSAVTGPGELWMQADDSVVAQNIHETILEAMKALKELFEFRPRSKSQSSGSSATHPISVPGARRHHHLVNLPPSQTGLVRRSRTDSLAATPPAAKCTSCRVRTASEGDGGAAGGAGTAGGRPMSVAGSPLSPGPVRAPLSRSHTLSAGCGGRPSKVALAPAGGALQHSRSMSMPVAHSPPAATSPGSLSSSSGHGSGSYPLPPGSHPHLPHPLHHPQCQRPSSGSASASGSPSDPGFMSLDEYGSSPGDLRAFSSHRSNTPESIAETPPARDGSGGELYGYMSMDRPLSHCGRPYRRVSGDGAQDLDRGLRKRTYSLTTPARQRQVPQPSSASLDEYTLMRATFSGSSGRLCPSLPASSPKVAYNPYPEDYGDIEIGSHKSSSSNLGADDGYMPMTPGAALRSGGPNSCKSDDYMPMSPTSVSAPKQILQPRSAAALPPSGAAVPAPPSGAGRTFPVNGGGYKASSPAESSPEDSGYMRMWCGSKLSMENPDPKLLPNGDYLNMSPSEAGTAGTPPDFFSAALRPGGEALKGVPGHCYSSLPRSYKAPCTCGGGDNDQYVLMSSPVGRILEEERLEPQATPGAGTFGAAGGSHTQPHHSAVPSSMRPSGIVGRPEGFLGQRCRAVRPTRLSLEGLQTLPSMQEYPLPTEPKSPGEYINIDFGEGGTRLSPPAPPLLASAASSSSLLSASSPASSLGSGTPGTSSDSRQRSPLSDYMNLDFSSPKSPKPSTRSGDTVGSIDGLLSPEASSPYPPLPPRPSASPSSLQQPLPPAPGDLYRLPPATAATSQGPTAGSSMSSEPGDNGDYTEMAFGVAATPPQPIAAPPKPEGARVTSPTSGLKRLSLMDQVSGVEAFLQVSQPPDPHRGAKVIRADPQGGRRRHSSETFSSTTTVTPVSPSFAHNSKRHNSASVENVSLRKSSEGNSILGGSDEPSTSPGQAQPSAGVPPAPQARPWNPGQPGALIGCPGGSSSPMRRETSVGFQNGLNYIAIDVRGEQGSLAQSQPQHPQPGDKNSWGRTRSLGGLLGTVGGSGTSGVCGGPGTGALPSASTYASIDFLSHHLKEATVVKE
Put plainly: co-IP; L6 myotubes serum starved, then stimulated with insulin (100 nM for 5, 20 and 60 min; 10 nM in Fig. 4B); lysates immunoprecipitated with IRS1 or IRS2 antibodies, western blot; also cells transfected with scrambled or nexilin siRNA.

Test [4] deals with insulin receptor substrate 1 (rat (endogenous in L6)) (UniProt P35570). The experiment in a line: co-IP; serum starved (basal) L6 myotubes; lysates immunoprecipitated with IRS1 or IRS2 antibodies, western blot; also cells pretreated with Latrunculin B (20 µM, 20 min) or jasplakinolide (2 µM, 30 min) before insulin, in which disassembly of the complex was inhibited; also cells transfected with scrambled or nexilin siRNA.

Test [5] deals with T1, IRS2 (rat (endogenous in L6)). The test is described as above.

No constants are given. Whether binding was seen depends on the method and setting. In cells and extracts the contact can be indirect. Some entries that bind do so weakly or less than the wild type.

“p85α the regulatory subunit of the Type 1A phosphatidylinositol-3-kinase (PI3K) (from UniProt Q63787-1 1-724)”: the binding result in test [1] is on record as “binds”.

B1: nexilin (protein, UniProt Q9Z2J4 1-656)
chain: MNDVSQKAEILLSSSKPVPKSYVPKLGKGDVKDKFEAMQRAREERNQRRSRDEKQRRKEQYIREREWNRRKQEIKDMLASDEEEEPSKVEKAYVPKLTGTVKGKFDEMEKHRQEEQRKRTEEERKRRIEQDLLEKRKMQRELAKRAEQEGDDSLLITVVPAKSYRAAANRKDPEDLDREHRNGRVSQEEEKTRHEEECRALKEAKCLSLVMDDETEAKKESRFPGKLKSTFEELERQRQENRKKQAEEEARRRLEEERRAFEEARRNMVNEEDESQDTETVFKEYRPGKLRLSFEEIERQRREEEKRKAEEEARRRMEEEKKAFAEARRSMVLDDDSPEIYKAVSQESLTPGKLEINFEQLLRQKMEEERRRTEEERRQKLEMEKQEFEQLRQEMGKEEEENESFGLSREYEELIKLKRSGSIQAKNLKSKFEKIGQLSEKEVQKKIEEERAKRRAIDLEIKEREAENFHEDDDVDVKPAKKSESPFTHKVNMKARFEQMAKARQEEEQRRIEEQKLLRMQFEQKEIDAALQKKREDDEEEEGSIVNGSTTEDEEQTRSGAPWFKKPLRNTSVVDSEPVRFTVKVTGEPKPEVTWWFEGELLQDGEDYQYIERGETYCLYLPETFPEDGGEYMCKAVNSKGSAASTCILTIEMDDY
Turning to B1, the binding result is listed as “no binding” in test [2], “no binding” in test [3], “binds” in test [4] and “no binding” in test [5].
